The experiment concerns the target full-length human PRMT8 isoform 1 (Homo sapiens, UniProt Q9NR22). The experiment in a line: PRMT8 biochemical assay (3H-SAM Flashplate, histone H4 31-45 peptide). The note with it: read-out: PRMT8 IC50; 1.5 nM PRMT8, 30 min preincubation, 150 nM peptide. The text has this:
S-adenosylmethionine (SAM), S-adenosylhomocysteine (SAH), bicine, Tween20, dimethylsulfoxide (DMSO), bovine skin gelatin (BSG), isopropyl-β-D-thiogalactopyranoside (IPTG), and Tris(2-carboxyethyl)phosphine hydrochloride solution (TCEP) were purchased from Sigma-Aldrich at the highest level of purity possible. ^3H-SAM was purchase from American Radiolabeled Chemicals with a specific activity of 80 Ci/mmol. 384-well streptavidin Flashplates were purchased from PerkinElmer.
Peptide representative of human histone H4 residues 31-45 was synthesized with an N-terminal linker-affinity tag motif and a C-terminal amide cap by 21st Century Biochemicals. The peptide was purified by high-performance liquid chromatography (HPLC) to greater than 95% purity and confirmed by liquid chromatography mass spectrometry (LC-MS). The sequence was Biot-Ahx-KPAIRRLARRGGVKR-amide (SEQ ID NO.:8).
Full-length human PRMT8 (NM_019854.4) isoform 1 transcript clone was amplified from an HEK 293 cDNA library and subcloned into pGEX-4T-1 (GE Life Sciences). The resulting construct encodes an N-terminal GST tag and a thrombin cleavage sequence
E. coli (BL21(DE3) Gold, Stratagene) made competent by the CaCl2 method were transformed with the PRMT8 construct and ampicillin selection. Protein over-expression was accomplished by growing the PRMT8 expressing E. coli clone and inducing expression with 0.3 mM IPTG at 16° C. […]

The chains behind the UniProt entries cited, without tags or fusion partners.
UniProt Q9NR22, whole entry: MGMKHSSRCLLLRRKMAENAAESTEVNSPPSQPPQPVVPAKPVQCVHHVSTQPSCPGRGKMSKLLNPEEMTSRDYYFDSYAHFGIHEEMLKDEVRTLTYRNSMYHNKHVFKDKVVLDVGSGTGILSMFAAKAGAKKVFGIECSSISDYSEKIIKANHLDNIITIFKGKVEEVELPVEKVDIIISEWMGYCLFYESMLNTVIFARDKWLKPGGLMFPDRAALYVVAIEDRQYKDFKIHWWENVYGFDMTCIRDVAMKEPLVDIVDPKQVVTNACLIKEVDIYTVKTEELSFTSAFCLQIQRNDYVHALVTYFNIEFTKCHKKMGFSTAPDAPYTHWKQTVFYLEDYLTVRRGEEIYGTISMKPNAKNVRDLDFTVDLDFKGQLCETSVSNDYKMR

SMILES strings stand for the structures. The match of structure and compound is tentative.

The IC50 is the concentration that gives 50% inhibition. With `CNCCN(C)Cc1ncsc1[C@H]1CC[C@@]2(CC1)CC(C)(C)CO2` [compound 83], the IC50 stood at 11.4 nM.

Values taken from patent US20170291905A1, “ARGININE METHYLTRANSFERASE INHIBITORS AND USES THEREOF” (Epizyme, Inc., priority 2014, published 2017).
